Test results as given in the supplement of paper PMC10849652.
This is one part of the list.

Sequences of proteins named here, by UniProt entry; tags and fusion partners are left off. A change or cut given only in a name is not applied to a line headed by its entry.
UniProt O75521: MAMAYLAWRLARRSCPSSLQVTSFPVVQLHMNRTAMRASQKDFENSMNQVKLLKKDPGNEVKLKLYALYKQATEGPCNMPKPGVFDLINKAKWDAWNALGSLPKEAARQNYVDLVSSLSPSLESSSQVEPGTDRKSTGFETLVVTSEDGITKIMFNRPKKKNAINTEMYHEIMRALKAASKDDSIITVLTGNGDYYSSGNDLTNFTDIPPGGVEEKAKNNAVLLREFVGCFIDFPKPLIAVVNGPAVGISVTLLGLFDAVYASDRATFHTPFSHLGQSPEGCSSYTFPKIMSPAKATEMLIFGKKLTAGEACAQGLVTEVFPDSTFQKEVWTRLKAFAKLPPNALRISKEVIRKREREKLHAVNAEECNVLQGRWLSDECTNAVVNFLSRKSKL
UniProt P42126: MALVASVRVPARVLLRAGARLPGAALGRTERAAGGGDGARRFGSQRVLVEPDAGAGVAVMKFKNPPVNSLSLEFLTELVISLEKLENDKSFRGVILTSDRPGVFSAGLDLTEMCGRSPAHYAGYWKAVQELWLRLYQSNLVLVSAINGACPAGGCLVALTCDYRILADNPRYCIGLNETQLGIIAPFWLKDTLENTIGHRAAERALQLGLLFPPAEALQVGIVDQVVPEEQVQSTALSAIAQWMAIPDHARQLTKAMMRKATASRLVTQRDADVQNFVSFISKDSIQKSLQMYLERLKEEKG
UniProt Q9BQC3: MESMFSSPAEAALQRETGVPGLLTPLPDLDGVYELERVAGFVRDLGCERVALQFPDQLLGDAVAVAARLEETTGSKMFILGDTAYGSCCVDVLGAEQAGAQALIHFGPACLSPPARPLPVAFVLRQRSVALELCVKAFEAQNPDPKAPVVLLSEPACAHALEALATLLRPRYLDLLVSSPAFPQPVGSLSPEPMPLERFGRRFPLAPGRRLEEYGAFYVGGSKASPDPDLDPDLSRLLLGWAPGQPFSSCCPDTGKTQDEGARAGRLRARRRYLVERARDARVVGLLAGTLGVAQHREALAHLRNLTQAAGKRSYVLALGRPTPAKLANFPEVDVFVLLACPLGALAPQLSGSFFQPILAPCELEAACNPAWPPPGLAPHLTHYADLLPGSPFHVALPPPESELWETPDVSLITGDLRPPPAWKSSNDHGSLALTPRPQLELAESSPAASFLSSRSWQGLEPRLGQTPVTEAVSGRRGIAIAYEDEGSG
UniProt Q9C005, whole entry, looked up: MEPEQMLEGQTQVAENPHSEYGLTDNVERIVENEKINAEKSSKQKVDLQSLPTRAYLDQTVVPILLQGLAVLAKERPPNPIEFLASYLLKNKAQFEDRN
UniProt P30084: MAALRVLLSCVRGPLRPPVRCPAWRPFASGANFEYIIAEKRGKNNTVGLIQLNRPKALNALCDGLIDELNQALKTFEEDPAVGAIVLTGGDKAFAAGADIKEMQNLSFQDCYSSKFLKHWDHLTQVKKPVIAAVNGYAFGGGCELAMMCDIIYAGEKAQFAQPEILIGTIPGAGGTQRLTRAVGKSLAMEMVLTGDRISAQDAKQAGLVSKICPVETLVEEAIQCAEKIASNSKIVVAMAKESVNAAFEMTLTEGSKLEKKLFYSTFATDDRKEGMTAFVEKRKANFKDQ
UniProt Q86TI2: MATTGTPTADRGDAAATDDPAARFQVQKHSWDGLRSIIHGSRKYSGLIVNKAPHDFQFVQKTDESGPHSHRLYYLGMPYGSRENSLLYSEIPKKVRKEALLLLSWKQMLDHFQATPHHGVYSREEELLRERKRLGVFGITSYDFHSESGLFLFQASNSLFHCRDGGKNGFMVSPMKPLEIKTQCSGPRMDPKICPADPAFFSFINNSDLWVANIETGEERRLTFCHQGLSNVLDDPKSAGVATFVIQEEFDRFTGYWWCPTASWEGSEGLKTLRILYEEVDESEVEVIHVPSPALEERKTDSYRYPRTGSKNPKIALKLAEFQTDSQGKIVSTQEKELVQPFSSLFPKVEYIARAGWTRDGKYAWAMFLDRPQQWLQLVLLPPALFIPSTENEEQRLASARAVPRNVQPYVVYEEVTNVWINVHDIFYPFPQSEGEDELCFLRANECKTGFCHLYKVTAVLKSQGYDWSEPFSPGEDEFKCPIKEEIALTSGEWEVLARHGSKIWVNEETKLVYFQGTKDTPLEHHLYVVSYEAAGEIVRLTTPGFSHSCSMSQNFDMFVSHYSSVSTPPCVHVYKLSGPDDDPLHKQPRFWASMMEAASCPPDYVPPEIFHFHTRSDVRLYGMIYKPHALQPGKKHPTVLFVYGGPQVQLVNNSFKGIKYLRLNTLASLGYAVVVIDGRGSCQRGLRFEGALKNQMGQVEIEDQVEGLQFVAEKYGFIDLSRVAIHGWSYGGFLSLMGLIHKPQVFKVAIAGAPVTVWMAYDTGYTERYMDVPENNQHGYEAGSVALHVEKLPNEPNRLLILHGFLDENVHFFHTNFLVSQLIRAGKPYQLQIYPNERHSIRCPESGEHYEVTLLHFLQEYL
UniProt Q5F1R6: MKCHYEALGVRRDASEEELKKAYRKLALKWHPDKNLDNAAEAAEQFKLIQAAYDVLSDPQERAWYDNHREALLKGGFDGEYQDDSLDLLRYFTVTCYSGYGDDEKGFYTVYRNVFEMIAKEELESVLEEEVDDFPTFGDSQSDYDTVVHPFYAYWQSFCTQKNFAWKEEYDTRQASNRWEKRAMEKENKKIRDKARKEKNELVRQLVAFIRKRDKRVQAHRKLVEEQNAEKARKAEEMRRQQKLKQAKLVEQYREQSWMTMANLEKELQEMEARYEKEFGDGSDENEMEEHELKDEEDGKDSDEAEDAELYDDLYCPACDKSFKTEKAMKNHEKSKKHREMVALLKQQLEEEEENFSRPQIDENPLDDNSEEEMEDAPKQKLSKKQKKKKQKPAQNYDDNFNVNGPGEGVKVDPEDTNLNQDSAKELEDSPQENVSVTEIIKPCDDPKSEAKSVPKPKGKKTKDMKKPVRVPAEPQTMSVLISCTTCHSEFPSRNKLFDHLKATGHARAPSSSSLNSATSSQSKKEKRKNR
UniProt Q9BQ95: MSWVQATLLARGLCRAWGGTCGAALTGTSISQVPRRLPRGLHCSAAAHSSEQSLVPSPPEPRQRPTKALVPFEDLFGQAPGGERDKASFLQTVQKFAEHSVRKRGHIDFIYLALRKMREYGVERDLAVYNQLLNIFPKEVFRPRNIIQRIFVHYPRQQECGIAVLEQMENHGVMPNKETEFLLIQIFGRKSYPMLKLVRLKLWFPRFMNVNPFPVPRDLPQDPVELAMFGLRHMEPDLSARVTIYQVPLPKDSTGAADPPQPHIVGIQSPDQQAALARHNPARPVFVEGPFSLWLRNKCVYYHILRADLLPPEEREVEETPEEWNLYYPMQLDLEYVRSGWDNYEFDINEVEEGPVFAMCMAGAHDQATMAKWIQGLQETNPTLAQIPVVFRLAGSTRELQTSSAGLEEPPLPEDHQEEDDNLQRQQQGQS
UniProt Q9BZG8: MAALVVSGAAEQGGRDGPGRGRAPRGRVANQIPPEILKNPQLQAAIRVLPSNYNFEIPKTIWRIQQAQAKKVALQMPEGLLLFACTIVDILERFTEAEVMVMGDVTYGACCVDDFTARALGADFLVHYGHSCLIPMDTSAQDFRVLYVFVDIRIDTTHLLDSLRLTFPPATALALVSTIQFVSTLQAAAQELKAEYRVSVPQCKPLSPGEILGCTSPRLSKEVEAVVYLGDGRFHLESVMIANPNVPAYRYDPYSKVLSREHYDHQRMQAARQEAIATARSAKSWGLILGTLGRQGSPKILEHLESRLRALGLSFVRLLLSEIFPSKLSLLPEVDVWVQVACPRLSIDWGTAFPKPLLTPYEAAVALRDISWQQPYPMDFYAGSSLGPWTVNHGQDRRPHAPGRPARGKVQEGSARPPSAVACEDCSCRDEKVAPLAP
UniProt P33316: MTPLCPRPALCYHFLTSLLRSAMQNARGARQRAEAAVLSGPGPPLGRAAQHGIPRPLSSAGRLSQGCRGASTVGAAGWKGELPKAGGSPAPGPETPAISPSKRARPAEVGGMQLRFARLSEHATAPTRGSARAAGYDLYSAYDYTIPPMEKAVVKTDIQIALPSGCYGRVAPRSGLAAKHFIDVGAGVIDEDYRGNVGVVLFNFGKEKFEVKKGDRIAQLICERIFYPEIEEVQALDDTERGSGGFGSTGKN
UniProt Q9BVJ7: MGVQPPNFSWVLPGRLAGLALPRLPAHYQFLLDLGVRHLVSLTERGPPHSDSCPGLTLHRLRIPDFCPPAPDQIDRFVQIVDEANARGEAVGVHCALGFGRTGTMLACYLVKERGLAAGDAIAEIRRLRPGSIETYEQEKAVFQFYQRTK
UniProt Q13217: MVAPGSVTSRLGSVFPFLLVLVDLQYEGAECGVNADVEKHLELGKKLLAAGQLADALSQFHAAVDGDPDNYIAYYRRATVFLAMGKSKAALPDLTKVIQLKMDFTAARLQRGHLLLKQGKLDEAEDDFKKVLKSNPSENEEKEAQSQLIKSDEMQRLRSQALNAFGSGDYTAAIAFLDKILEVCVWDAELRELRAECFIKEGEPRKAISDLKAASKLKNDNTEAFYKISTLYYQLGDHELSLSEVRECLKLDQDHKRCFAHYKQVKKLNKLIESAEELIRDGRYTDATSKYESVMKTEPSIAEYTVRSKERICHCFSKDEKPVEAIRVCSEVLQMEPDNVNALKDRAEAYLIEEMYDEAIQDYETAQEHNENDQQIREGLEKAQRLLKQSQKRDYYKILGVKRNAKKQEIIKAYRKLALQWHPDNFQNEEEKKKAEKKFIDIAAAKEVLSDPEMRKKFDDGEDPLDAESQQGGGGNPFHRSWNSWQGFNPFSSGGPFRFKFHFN
UniProt Q8IXB1: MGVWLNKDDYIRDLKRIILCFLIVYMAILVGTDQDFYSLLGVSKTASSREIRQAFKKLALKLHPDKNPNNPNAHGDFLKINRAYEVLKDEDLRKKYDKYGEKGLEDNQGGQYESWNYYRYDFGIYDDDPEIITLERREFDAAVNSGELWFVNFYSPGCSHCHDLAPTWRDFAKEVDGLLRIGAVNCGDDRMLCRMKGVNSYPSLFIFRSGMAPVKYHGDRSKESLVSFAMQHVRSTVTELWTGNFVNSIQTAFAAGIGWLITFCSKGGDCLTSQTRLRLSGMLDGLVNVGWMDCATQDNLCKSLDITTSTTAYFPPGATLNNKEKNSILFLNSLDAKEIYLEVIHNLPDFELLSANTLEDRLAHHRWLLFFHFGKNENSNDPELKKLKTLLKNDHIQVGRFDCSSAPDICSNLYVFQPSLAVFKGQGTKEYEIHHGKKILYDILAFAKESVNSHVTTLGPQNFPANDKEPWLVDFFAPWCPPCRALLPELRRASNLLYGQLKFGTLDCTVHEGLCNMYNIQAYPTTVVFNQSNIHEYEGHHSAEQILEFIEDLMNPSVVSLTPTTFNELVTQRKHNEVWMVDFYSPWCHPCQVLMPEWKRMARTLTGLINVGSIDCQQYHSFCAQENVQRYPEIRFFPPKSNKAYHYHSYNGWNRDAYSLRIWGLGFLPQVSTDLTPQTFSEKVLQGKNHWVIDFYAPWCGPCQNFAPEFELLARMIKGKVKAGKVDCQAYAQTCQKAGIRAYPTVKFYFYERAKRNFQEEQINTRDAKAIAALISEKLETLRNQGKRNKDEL
UniProt Q7Z388: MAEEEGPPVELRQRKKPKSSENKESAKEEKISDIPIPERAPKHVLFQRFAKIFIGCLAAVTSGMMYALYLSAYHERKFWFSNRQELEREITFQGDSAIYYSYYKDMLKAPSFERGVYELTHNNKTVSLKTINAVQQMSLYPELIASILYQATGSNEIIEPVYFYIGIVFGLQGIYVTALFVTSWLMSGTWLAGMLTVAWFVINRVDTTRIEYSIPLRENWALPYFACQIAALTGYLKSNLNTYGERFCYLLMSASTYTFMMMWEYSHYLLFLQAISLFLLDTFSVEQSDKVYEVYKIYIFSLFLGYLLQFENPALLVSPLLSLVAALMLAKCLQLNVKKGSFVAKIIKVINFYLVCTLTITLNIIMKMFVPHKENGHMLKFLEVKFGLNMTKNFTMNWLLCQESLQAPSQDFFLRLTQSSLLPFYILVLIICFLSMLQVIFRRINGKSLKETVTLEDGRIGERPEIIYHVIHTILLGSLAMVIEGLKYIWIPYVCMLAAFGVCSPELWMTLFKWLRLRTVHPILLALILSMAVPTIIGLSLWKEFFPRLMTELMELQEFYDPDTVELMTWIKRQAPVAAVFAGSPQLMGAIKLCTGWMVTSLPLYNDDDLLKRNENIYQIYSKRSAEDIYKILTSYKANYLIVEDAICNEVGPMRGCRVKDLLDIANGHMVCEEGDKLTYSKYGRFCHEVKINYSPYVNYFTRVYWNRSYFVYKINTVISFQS
UniProt O75937: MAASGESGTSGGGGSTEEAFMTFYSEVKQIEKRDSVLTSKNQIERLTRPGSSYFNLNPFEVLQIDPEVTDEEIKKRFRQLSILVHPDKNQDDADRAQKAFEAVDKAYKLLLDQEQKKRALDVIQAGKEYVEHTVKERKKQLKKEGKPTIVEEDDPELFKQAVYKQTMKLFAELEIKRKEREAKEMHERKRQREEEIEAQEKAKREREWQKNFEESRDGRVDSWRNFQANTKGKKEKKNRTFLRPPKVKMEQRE

Key:
Test in all cases: log2 fold change, soluble protein after heating vs DMSO (PISA); higher = thermal stabilisation; K562 cells, 10 uM, 30 min; active = over 0.2 and 3.5 SD of the protein, either way, in both replicates (recomputed)
[1] = compound: CS(=O)(=O)c1ccc(-c2cnc(N)c(C(=O)Nc3ccccc3)n2)cc1
Procedure, shortened: (§1)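 K562 cells at 2×10^6 cells/mL were exposed to 10 μM compound for 30 min, then aliquots were heated for 3 min across 48°C-58°C, pooled, and extracted in PBS containing 0.5% NP-40 at 4°C. The supernatant after 21,000xg for 90 min was taken as soluble protein and measured by TMTpro 16plex LC-MS/MS with channel sums equalised. Thermal stability is reported relative to control samples, with values from duplicates. Fold changes are given on a log2 scale.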

crizotinib = compound: C[C@@H](Oc1cc(-c2cnn(C3CCNCC3)c2)cnc1N)c1c(Cl)ccc(F)c1Cl [crizotinib]
Procedure, shortened: as §1

[2] = compound: C[C@@H]1COCCN1C2=NC(=NC(=C2)C3(CC3)S(=O)(=O)C)C4=C5C=CNC5=CC=C4
Procedure, shortened: as §1

[3] = compound: C[C@H](C1=CC=C(C=C1)C(=O)NC2=C3C=CNC3=NC=C2)N
Procedure, shortened: as §1

duvelisib = compound: C[C@H](Nc1ncnc2nc[nH]c12)c1cc2cccc(Cl)c2c(=O)n1-c1ccccc1 [duvelisib]
Procedure, shortened: as §1

gandotinib = compound: Cc1cc(Nc2cc(CN3CCOCC3)c3nc(C)c(Cc4ccc(Cl)cc4F)n3n2)n[nH]1 [gandotinib]
Procedure, shortened: as §1

tozasertib = compound: Cc1cc(Nc2cc(N3CCN(C)CC3)nc(Sc3ccc(NC(=O)C4CC4)cc3)n2)n[nH]1 [tozasertib]
Procedure, shortened: as §1

[4] = compound: Cc1cc(SCc2sc(-c3ccc(C(F)(F)F)cc3)nc2C)ccc1OCC(=O)O
Procedure, shortened: as §1

doramapimod = compound: Cc1ccc(-n2nc(C(C)(C)C)cc2NC(=O)Nc2ccc(OCCN3CCOCC3)c3ccccc23)cc1 [doramapimod]
Procedure, shortened: as §1

ispinesib = compound: Cc1ccc(C(=O)N(CCCN)[C@@H](c2nc3cc(Cl)ccc3c(=O)n2Cc2ccccc2)C(C)C)cc1 [ispinesib]
Procedure, shortened: as §1

bafetinib = compound: Cc1ccc(NC(=O)c2ccc(CN3CC[C@H](N(C)C)C3)c(C(F)(F)F)c2)cc1Nc1nccc(-c2cncnc2)n1 [bafetinib]
Procedure, shortened: as §1

[5] = compound: Cc1cccc(CC(=O)N2CCc3c2ccc(-c2cn(C)c4ncnc(N)c24)c3F)n1
Procedure, shortened: as §1

nilotinib = compound: Cc1cn(-c2cc(NC(=O)c3ccc(C)c(Nc4nccc(-c5cccnc5)n4)c3)cc(C(F)(F)F)c2)cn1 [nilotinib]
Procedure, shortened: as §1

[6] = compound: Cc1nc(Nc2n[nH]c3c2CN(C(=O)N[C@H](CN(C)C)c2ccccc2)C3(C)C)c2sccc2n1
Procedure, shortened: as §1

dasatinib = compound: Cc1nc(Nc2ncc(C(=O)Nc3c(C)cccc3Cl)s2)cc(N2CCN(CCO)CC2)n1 [dasatinib]
Procedure, shortened: as §1

[7] = compound: Cc1ncc(-c2ccnc(Nc3ccc(S(C)(=O)=O)cc3)n2)n1C(C)C
Procedure, shortened: as §1

[8] = compound: Cn1cc(-c2ccc3c(c2)CCN3C(=O)Cc2cccc(C(F)(F)F)c2)c2c(N)ncnc21
Procedure, shortened: as §1

[9] = compound: Cn1cc(-c2ccc3nnc(C(F)(F)c4ccc5ncccc5c4)n3n2)cn1
Procedure, shortened: as §1

tipifarnib = compound: Cn1cncc1[C@@](N)(c1ccc(Cl)cc1)c1ccc2c(c1)c(-c1cccc(Cl)c1)cc(=O)n2C [tipifarnib]
Procedure, shortened: as §1

mubritinib = compound: FC(F)(F)c1ccc(/C=C/c2nc(COc3ccc(CCCCn4ccnn4)cc3)co2)cc1 [mubritinib]
Procedure, shortened: as §1

Measured: log2 fold change

ECI2 (UniProt O75521)
inactive: [1] 0.017 | crizotinib 0.042 | [2] 0.072 | [3] -0.011 | duvelisib 0.033 | gandotinib -0.026 | tozasertib -0.034 | [4] 0.015 | doramapimod -0.026 | ispinesib 0.028 | bafetinib -0.047 | [5] 0 | nilotinib 0.024 | [6] -0.056 | dasatinib -0.031 | [7] 0.04 | [8] 0.044 | [9] 0.023 | tipifarnib 0.012 | mubritinib 0.006

ECI1 (UniProt P42126)
inactive: [1] 0.002 | crizotinib 0.072 | [2] 0.156 | [3] -0.034 | duvelisib 0.068 | gandotinib 0.004 | tozasertib 0.025 | [4] 0.005 | doramapimod -0.011 | ispinesib 0.036 | bafetinib -0.033 | [5] -0.092 | nilotinib -0.008 | [6] 0.031 | dasatinib 0.011 | [7] -0.025 | [8] 0.08 | [9] 0.02 | tipifarnib -0.007 | mubritinib 0.004

DPH2 (UniProt Q9BQC3)
inactive: [1] -0.089 | crizotinib -0.031 | [2] 0.023 | [3] 0.054 | duvelisib 0.082 | gandotinib -0.023 | tozasertib -0.022 | [4] 0.05 | doramapimod 0.039 | ispinesib -0.063 | bafetinib -0.048 | [5] -0.005 | nilotinib -0.026 | [6] 0.008 | dasatinib -0.014 | [7] -0.058 | [8] -0.018 | [9] -0.052 | tipifarnib -0.017 | mubritinib 0.029

DPY30 (UniProt Q9C005)
inactive: [1] -0.2 | crizotinib 0.141 | [2] 0.011 | [3] -0.326 | duvelisib 0.661 | gandotinib 0.344 | tozasertib 0.047 | [4] -0.088 | doramapimod -0.245 | ispinesib 0.496 | bafetinib -0.16 | [5] -0.284 | nilotinib 0.132 | [6] -0.086 | dasatinib -0.052 | [7] -0.104 | [8] 0.093 | [9] 0.404 | tipifarnib 0.412 | mubritinib -0.035

DYNC1H1 (UniProt Q14204)
inactive: [1] 0.032 | crizotinib -0.045 | [2] 0.021 | [3] 0.004 | duvelisib 0.012 | gandotinib -0.018 | tozasertib -0.01 | [4] 0.047 | doramapimod -0.002 | ispinesib -0.022 | bafetinib 0.023 | [5] 0.048 | nilotinib -0.007 | [6] 0.045 | dasatinib -0.065 | [7] -0.019 | [8] 0.025 | [9] 0.012 | tipifarnib -0.037 | mubritinib 0.035

ECHS1 (UniProt P30084)
inactive: [1] 0.023 | crizotinib 0.019 | [2] 0.061 | [3] -0.114 | duvelisib -0.002 | gandotinib 0.128 | tozasertib -0.026 | [4] 0.044 | doramapimod -0.023 | ispinesib 0.161 | bafetinib 0.051 | [5] 0.014 | nilotinib -0.015 | [6] 0.008 | dasatinib -0.074 | [7] -0.017 | [8] 0.053 | [9] -0.009 | tipifarnib -0.033 | mubritinib 0.045

DPP9 isoform 2 (UniProt Q86TI2)
inactive: [1] 0.042 | crizotinib -0.035 | [2] 0.016 | [3] 0.005 | duvelisib 0.05 | gandotinib -0.088 | tozasertib -0.072 | [4] 0.051 | doramapimod 0.044 | ispinesib -0.119 | bafetinib -0.01 | [5] 0.046 | nilotinib -0.001 | [6] -0.001 | dasatinib -0.041 | [7] -0.047 | [8] 0.105 | [9] 0.013 | tipifarnib -0.077 | mubritinib 0.09

DNAJC21 isoform 3 (UniProt Q5F1R6)
inactive: [1] -0.056 | crizotinib -0.01 | [2] -0.265 | [3] 0.149 | duvelisib -0.08 | gandotinib 0.009 | tozasertib 0.058 | [4] 0.057 | doramapimod 0.101 | ispinesib -0.073 | bafetinib 0.087 | [5] 0.023 | nilotinib -0.132 | [6] 0.032 | dasatinib -0.008 | [7] 0.034 | [8] -0.056 | [9] -0.004 | tipifarnib 0.069 | mubritinib 0.039

ECSIT (UniProt Q9BQ95)
inactive: [1] 0.024 | crizotinib 0.027 | [2] 0.032 | [3] 0.025 | duvelisib 0.022 | gandotinib -0.045 | tozasertib 0.012 | [4] -0.056 | doramapimod 0.011 | ispinesib 0.03 | bafetinib -0.034 | [5] 0.066 | nilotinib 0.032 | [6] 0.062 | dasatinib 0.042 | [7] -0.053 | [8] 0.043 | [9] 0.017 | tipifarnib 0.078 | mubritinib 0.029

DPH1 (UniProt Q9BZG8)
inactive: [1] -0.052 | crizotinib -0.056 | [2] -0.072 | [3] -0.033 | duvelisib -0.056 | gandotinib -0.069 | tozasertib -0.003 | [4] 0 | doramapimod 0.014 | ispinesib 0.046 | bafetinib -0.021 | [5] 0.057 | nilotinib -0.03 | [6] -0.014 | dasatinib -0.032 | [7] -0.101 | [8] -0.02 | [9] 0.015 | tipifarnib -0.021 | mubritinib 0.008

DUT (UniProt P33316)
inactive: [1] 0.011 | crizotinib -0.032 | [2] 0.117 | [3] -0.046 | duvelisib 0.06 | gandotinib -0.033 | tozasertib -0.045 | [4] 0.011 | doramapimod -0.03 | ispinesib -0.015 | bafetinib -0.046 | [5] -0.005 | nilotinib -0.01 | [6] 0.081 | dasatinib -0.047 | [7] 0.033 | [8] 0.05 | [9] -0.034 | tipifarnib -0.018 | mubritinib 0.019

DUSP23 (UniProt Q9BVJ7)
inactive: [1] 0.02 | crizotinib 0.08 | [2] 0.091 | [3] -0.108 | duvelisib 0.061 | gandotinib 0.067 | tozasertib 0.064 | [4] -0.009 | doramapimod 0.002 | ispinesib 0.143 | bafetinib -0.007 | [5] 0.059 | nilotinib 0.041 | [6] -0.02 | dasatinib 0.025 | [7] 0.025 | [8] 0.061 | [9] 0.033 | tipifarnib -0.172 | mubritinib 0.012

DNAJC3 (UniProt Q13217)
inactive: [1] 0.052 | crizotinib 0.078 | [2] 0.037 | [3] 0.114 | duvelisib 0.004 | gandotinib 0.044 | tozasertib 0.014 | [4] 0.009 | doramapimod 0.032 | ispinesib 0.003 | bafetinib 0.001 | [5] 0.002 | nilotinib 0.053 | [6] -0.002 | dasatinib 0.06 | [7] 0 | [8] -0.051 | [9] 0.049 | tipifarnib 0.092 | mubritinib -0.058

Two entries drawn at random from those above, as already listed:
ECHS1 (UniProt P30084)
inactive: [1] 0.023 | crizotinib 0.019 | [2] 0.061 | [3] -0.114 | duvelisib -0.002 | gandotinib 0.128 | tozasertib -0.026 | [4] 0.044 | doramapimod -0.023 | ispinesib 0.161 | bafetinib 0.051 | [5] 0.014 | nilotinib -0.015 | [6] 0.008 | dasatinib -0.074 | [7] -0.017 | [8] 0.053 | [9] -0.009 | tipifarnib -0.033 | mubritinib 0.045

DPY30 (UniProt Q9C005)
inactive: [1] -0.2 | crizotinib 0.141 | [2] 0.011 | [3] -0.326 | duvelisib 0.661 | gandotinib 0.344 | tozasertib 0.047 | [4] -0.088 | doramapimod -0.245 | ispinesib 0.496 | bafetinib -0.16 | [5] -0.284 | nilotinib 0.132 | [6] -0.086 | dasatinib -0.052 | [7] -0.104 | [8] 0.093 | [9] 0.404 | tipifarnib 0.412 | mubritinib -0.035

More entries follow.

DNAJC10 (UniProt Q8IXB1)
inactive: [1] 0.017 | crizotinib 0.025 | [2] -0.138 | [3] 0.077 | duvelisib -0.034 | gandotinib 0.104 | tozasertib -0.021 | [4] 0.045 | doramapimod 0.008 | ispinesib 0.044 | bafetinib 0.05 | [5] 0.019 | nilotinib -0.008 | [6] 0.052 | dasatinib 0.014 | [7] -0.029 | [8] -0.075 | [9] 0.029 | tipifarnib 0.019 | mubritinib -0.09

DPY19L4 (UniProt Q7Z388)
inactive: [1] 0.028 | crizotinib -0.076 | [2] -0.003 | [3] 0.026 | duvelisib 0.003 | gandotinib -0.011 | tozasertib -0.015 | [4] -0.181 | doramapimod -0.089 | ispinesib -0.053 | bafetinib -0.169 | [5] -0.035 | nilotinib 0.205 | [6] 0.109 | dasatinib -0.369 | [7] -0.099 | [8] -0.193 | [9] 0.027 | tipifarnib 0.093 | mubritinib 0.036

DNAJC8 (UniProt O75937)
inactive: [1] -0.011 | crizotinib 0.039 | [2] 0.037 | [3] -0.056 | duvelisib 0.036 | gandotinib -0.074 | tozasertib 0.029 | [4] 0.05 | doramapimod -0.015 | ispinesib 0.054 | bafetinib 0 | [5] 0.043 | nilotinib -0.019 | [6] -0.032 | dasatinib -0.07 | [7] 0.052 | [8] -0.001 | [9] 0.003 | tipifarnib -0.016 | mubritinib 0
